No constants are given. Whether binding was seen depends on the method and setting. Some results given as binding are weak or reduced against the parent protein; the word gives no strength. Where a sequence is shown, tags or fusion partners need not be part of it.
Target: T1, Flag-tagged SHARPIN (human), Q9H0F6
T1 chain: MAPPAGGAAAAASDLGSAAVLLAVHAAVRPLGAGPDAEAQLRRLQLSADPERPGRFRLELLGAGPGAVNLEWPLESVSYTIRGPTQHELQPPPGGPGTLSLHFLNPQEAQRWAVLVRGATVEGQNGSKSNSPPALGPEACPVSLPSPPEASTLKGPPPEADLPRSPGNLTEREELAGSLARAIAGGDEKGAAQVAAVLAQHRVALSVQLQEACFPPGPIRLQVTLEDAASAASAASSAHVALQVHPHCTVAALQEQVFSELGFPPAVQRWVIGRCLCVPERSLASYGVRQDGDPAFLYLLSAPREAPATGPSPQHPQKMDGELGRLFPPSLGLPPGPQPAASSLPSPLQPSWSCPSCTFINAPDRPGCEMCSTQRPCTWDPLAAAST
Experiment: Flag IP of Flag-SHARPIN from WM115 lysate, on-bead tryptic digestion, LC/MS-MS
Details: remark: other sources report otherwise

B1: RBCK1, Q9BYM8 1-510 (protein, human, UniProt Q9BYM8 1-510, looked up)
chain: MDEKTKKAEEMALSLTRAVAGGDEQVAMKCAIWLAEQRVPLSVQLKPEVSPTQDIRLWVSVEDAQMHTVTIWLTVRPDMTVASLKDMVFLDYGFPPVLQQWVIGQRLARDQETLHSHGVRQNGDSAYLYLLSARNTSLNPQELQRERQLRMLEDLGFKDLTLQPRGPLEPGPPKPGVPQEPGRGQPDAVPEPPPVGWQCPGCTFINKPTRPGCEMCCRARPEAYQVPASYQPDEEERARLAGEEEALRQYQQRKQQQQEGNYLQHVQLDQRSLVLNTEPAECPVCYSVLAPGEAVVLRECLHTFCRECLQGTIRNSQEAEVSCPFIDNTYSCSGKLLEREIKALLTPEDYQRFLDLGISIAENRSAFSYHCKTPDCKGWCFFEDDVNEFTCPVCFHVNCLLCKAIHEQMNCKEYQEDLALRAQNDVAARQTTEMLKVMLQQGEAMRCPQCQIVVQKKDGCDWIRCTVCHTEICWVTKGPRWGPGGPGDTSGGCRCRVNGIPCHPSCQNCH
Q: How did the binding turn out when B1 was run?
A: binds
